Laboratory results reported in publication PMC6426960.
These are yes or no findings as the source states them, for the method shown. Binding seen in cells or lysates may run through a third protein. Here binding means that the protein was enriched with, or labelled near, the bait; the list need not be complete. A no says only that the protein was not detected with the bait. Sequences can lack the tags named with a protein.

How the values were obtained:
[1] = biological target: T1, His6_Wcw_1460 (Waddlia chondrophila) (UniProt D6YRW4); assay: affinity purification with mass spectrometry; His pull-down (Pierce Pull-Down PolyHis kit): His-tagged bait from the E. coli soluble fraction immobilised on HisPur Cobalt resin; prey: lysate of purified W. chondrophila EBs (1/40 fraction per pull-down); eluted with SDS sample buffer; shotgun mass spectrometry; His tag alone as control; only the target purified
T1 sequence: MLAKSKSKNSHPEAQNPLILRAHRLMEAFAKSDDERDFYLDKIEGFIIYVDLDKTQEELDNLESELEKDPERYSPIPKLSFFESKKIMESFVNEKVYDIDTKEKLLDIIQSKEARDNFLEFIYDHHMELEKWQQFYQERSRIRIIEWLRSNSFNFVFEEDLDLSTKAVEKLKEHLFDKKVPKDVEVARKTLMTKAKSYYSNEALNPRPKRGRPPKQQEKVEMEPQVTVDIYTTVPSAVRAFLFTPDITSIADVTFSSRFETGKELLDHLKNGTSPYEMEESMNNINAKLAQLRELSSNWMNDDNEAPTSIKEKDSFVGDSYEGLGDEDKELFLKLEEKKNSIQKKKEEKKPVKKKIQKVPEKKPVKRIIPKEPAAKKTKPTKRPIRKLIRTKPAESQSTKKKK

[2] = biological target: T2, His6_Wcw_1456 (Waddlia chondrophila) (UniProt D6YRW0); assay: as above
T2 sequence: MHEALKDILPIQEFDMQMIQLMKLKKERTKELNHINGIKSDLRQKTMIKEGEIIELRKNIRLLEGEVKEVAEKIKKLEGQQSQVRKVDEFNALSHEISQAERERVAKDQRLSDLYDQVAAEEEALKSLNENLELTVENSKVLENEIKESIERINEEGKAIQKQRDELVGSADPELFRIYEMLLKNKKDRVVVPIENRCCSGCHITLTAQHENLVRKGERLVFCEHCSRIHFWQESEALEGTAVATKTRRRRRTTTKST

B1: RpoD (σ^66) (protein, UniProt D6YT87 1-555)
chain: MKNNSTPKEAISQQHQQKIDELVAIAKDQGFITYEEINDVLPMTIDTADQIDQILIFLSGMDVQILNQSEVERQKEKKKEAKELEGLPRRVEGTPDDPVRMYLKEMGSVPLLTREEEVEISKRIEKAQHQIERIIMRFRNSSRETIAICSALINNKERFDKCITEKEIENKTEFLKLLPRLSDLLQKDDQILESHLIELENPKLTKAERAYYLEEIEKARIRTQAYLRRLHLRHNIIDDFGEVIMESYDRFLQLEEEILELTPRAERNKYAGLKLAAAKRKLKKKELAAGRSLEEYKKDVRMLQRWMDKSQEAKREMVESNLRLVISIAKKYTNRGLSFLDLIQEGNMGLMKAVEKFEYRRGYKFSTYATWWIRQAVTRAIADQARTIRIPVHMIETINKVLRGAKKLMMETGREPTPEELANELGLSAERIREIYKIAQHPISLQAEVGDGGESQFGDFLEDTGADSPAEATGYSILKDKMNEVLLTLTDRERKVLIQRFGLNDGKPKTLEEVGVEFNVTRERIRQIEAKALRKMRHPTRSKQLKAFLDLLEVE
[1]
  binding: binds
[2]
  binding: binds

B2: Wcw_1460 (endogenous) (protein, UniProt D6YRW4 1-403)
chain: MLAKSKSKNSHPEAQNPLILRAHRLMEAFAKSDDERDFYLDKIEGFIIYVDLDKTQEELDNLESELEKDPERYSPIPKLSFFESKKIMESFVNEKVYDIDTKEKLLDIIQSKEARDNFLEFIYDHHMELEKWQQFYQERSRIRIIEWLRSNSFNFVFEEDLDLSTKAVEKLKEHLFDKKVPKDVEVARKTLMTKAKSYYSNEALNPRPKRGRPPKQQEKVEMEPQVTVDIYTTVPSAVRAFLFTPDITSIADVTFSSRFETGKELLDHLKNGTSPYEMEESMNNINAKLAQLRELSSNWMNDDNEAPTSIKEKDSFVGDSYEGLGDEDKELFLKLEEKKNSIQKKKEEKKPVKKKIQKVPEKKPVKRIIPKEPAAKKTKPTKRPIRKLIRTKPAESQSTKKKK
[2]
  binding: no binding

B3: Wcw_1456 (endogenous) (protein, UniProt D6YRW0 1-258)
chain: MHEALKDILPIQEFDMQMIQLMKLKKERTKELNHINGIKSDLRQKTMIKEGEIIELRKNIRLLEGEVKEVAEKIKKLEGQQSQVRKVDEFNALSHEISQAERERVAKDQRLSDLYDQVAAEEEALKSLNENLELTVENSKVLENEIKESIERINEEGKAIQKQRDELVGSADPELFRIYEMLLKNKKDRVVVPIENRCCSGCHITLTAQHENLVRKGERLVFCEHCSRIHFWQESEALEGTAVATKTRRRRRTTTKST
[1]
  binding: no binding
